Source: PubChem BioAssay AID1259405 (NCATS, 2018)
Test: 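Mouse-designed siRNAs used to find CHO productivity engineering targets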 (primary screen). Cell system: Chinese hamster CHO-K1 ovary cells with stable secreted eGFP expression. Reagents: single siRNA against mouse genes, 0.8 pmol siRNA per well (2 µl of 400 nM stock). Timing: 3 days. Read-out: 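Percent of the per-plate non-targeting control median for intracellular GFP per well by laser scanning cytometry and for cell viability by ATP luminescence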. Scale: GFP, % of control: higher = more GFP per well, higher productivity; viability (ATP), % of control: higher = more viable cells (more ATP). Call rule: 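Called active when intracellular GFP, relative to negative control, is at or above 120%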.
Here is a random part of about 50,000 deposited reagents. About 4,000 of them (8%) were called active. 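Mouse siRNA library applied to hamster cells; one well for each siRNA.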 A number with no mark means an inactive call. Reagents against one gene are numbered here. No sequences are given here.

| gene | reagent no. | GFP, % of control | viability (ATP), % of control |
| --- | --- | --- | --- |
| Svbp (small vasohibin binding protein) | 1 | 30 | 21.2 |
| Svbp (small vasohibin binding protein) | 2 | 81.8 | 67.1 |
| Svbp (small vasohibin binding protein) | 3 | 49.5 | 73 |
| Srsf6 (serine and arginine-rich splicing factor 6) | 1 | 94.6 | 126 |
| Srsf6 (serine and arginine-rich splicing factor 6) | 2 | 63.2 | 72.4 |
| Ndufab1 (NADH:ubiquinone oxidoreductase subunit AB1) | 1 | 90.9 | 49.7 |
| Ndufab1 (NADH:ubiquinone oxidoreductase subunit AB1) | 2 | 83 | 60.3 |
| Ndufab1 (NADH:ubiquinone oxidoreductase subunit AB1) | 3 | 180 (active) | 150 |
| Plcd1 (phospholipase C, delta 1) | 1 | 84 | 92.9 |
| Plcd1 (phospholipase C, delta 1) | 2 | 108 | 95.3 |
| Plcd1 (phospholipase C, delta 1) | 3 | 83 | 74.7 |
| Grhl3 (grainyhead like transcription factor 3) | 1 | 46 | 55.5 |
| Grhl3 (grainyhead like transcription factor 3) | 2 | 78.3 | 86.6 |
| Grhl3 (grainyhead like transcription factor 3) | 3 | 54.1 | 87.7 |
| Brcc3dc (BRCA1/BRCA2-containing complex, subunit 3, domain containing) | 1 | 86.6 | 92.8 |
| Brcc3dc (BRCA1/BRCA2-containing complex, subunit 3, domain containing) | 2 | 43.1 | 70.8 |
| Brcc3dc (BRCA1/BRCA2-containing complex, subunit 3, domain containing) | 3 | 120 | 93.7 |
| Gabbr1 (gamma-aminobutyric acid type B receptor subunit 1) | 1 | 127 (active) | 103 |
| Gabbr1 (gamma-aminobutyric acid type B receptor subunit 1) | 2 | 100 | 69.3 |
| Gabbr1 (gamma-aminobutyric acid type B receptor subunit 1) | 3 | 69.4 | 65.6 |
| Ctnnb1 (catenin beta 1) | 1 | 66.5 | 82.1 |
| Ctnnb1 (catenin beta 1) | 2 | 83.9 | 84.7 |
| Ssbp1 (single-stranded DNA binding protein 1) | 1 | 67.5 | 68.2 |
| Ssbp1 (single-stranded DNA binding protein 1) | 2 | 87.3 | 85 |
| Il21r (interleukin 21 receptor) | 1 | 61.7 | 36.8 |
| Il21r (interleukin 21 receptor) | 2 | 72.5 | 58.4 |
| Il21r (interleukin 21 receptor) | 3 | 70.2 | 63.3 |
| Chic1 (cysteine-rich hydrophobic domain 1) | 1 | 73.5 | 76.1 |
| Chic1 (cysteine-rich hydrophobic domain 1) | 2 | 65.1 | 92 |
| Chic1 (cysteine-rich hydrophobic domain 1) | 3 | 75.8 | 72.8 |
| Cxcr6 (C-X-C motif chemokine receptor 6) | 1 | 114 | 78.4 |
| Cxcr6 (C-X-C motif chemokine receptor 6) | 2 | 74.5 | 72.6 |
| Cxcr6 (C-X-C motif chemokine receptor 6) | 3 | 68 | 62.2 |
| Flrt1 (fibronectin leucine rich transmembrane protein 1) | 1 | 107 | 98.8 |
| Flrt1 (fibronectin leucine rich transmembrane protein 1) | 2 | 58.9 | 48.7 |
| Flrt1 (fibronectin leucine rich transmembrane protein 1) | 3 | 59.7 | 36 |
| Rrh (retinal pigment epithelium derived rhodopsin homolog) | 1 | 112 | 88.5 |
| Rrh (retinal pigment epithelium derived rhodopsin homolog) | 2 | 52.3 | 71.8 |
| Rrh (retinal pigment epithelium derived rhodopsin homolog) | 3 | 55.4 | 71.7 |
| Nxnl1 (nucleoredoxin-like 1) | 1 | 79.8 | 75.3 |
| Nxnl1 (nucleoredoxin-like 1) | 2 | 106 | 79.1 |
| Nxnl1 (nucleoredoxin-like 1) | 3 | 84.2 | 72.4 |
| Cer1 (cerberus 1, DAN family BMP antagonist) | 1 | 81.8 | 77.5 |
| Cer1 (cerberus 1, DAN family BMP antagonist) | 2 | 102 | 75.6 |
| Cer1 (cerberus 1, DAN family BMP antagonist) | 3 | 80.7 | 93.7 |
| Cyp19a1 (cytochrome P450, family 19, subfamily a, polypeptide 1) | 1 | 79.5 | 81.3 |
| Cyp19a1 (cytochrome P450, family 19, subfamily a, polypeptide 1) | 2 | 81.4 | 70.5 |
| Cyp19a1 (cytochrome P450, family 19, subfamily a, polypeptide 1) | 3 | 80.6 | 62.3 |
| Or7g29 (olfactory receptor family 7 subfamily G member 29) | 1 | 71.4 | 75.4 |
| Or7g29 (olfactory receptor family 7 subfamily G member 29) | 2 | 36.6 | 36.6 |
| Or7g29 (olfactory receptor family 7 subfamily G member 29) | 3 | 39.1 | 68.1 |
| Pth (parathyroid hormone) | 1 | 56.4 | 52.3 |
| Pth (parathyroid hormone) | 2 | 38.1 | 42.9 |
| Pth (parathyroid hormone) | 3 | 69 | 64.6 |
| Dus3l (dihydrouridine synthase 3 like) | 1 | 72.4 | 55.7 |
| Dus3l (dihydrouridine synthase 3 like) | 2 | 40.9 | 70.6 |
| Dus3l (dihydrouridine synthase 3 like) | 3 | 98.1 | 63.2 |

Reformatted: entries from further up.
gene	reagent no.	GFP, % of control	viability (ATP), % of control
Cyp19a1 (cytochrome P450, family 19, subfamily a, polypeptide 1)	1	79.5	81.3
Cyp19a1 (cytochrome P450, family 19, subfamily a, polypeptide 1)	2	81.4	70.5
Cyp19a1 (cytochrome P450, family 19, subfamily a, polypeptide 1)	3	80.6	62.3
Or7g29 (olfactory receptor family 7 subfamily G member 29)	1	71.4	75.4
Or7g29 (olfactory receptor family 7 subfamily G member 29)	2	36.6	36.6
